Measurements as given in patent publication US11214556B1, “Method of treating colorectal cancer” (King Abdulaziz University, priority 2019, dated 2022).
Some entries share one result that the patent states for a list of compounds.

Tested on: CRC cell lines (HCT-116, Caco-2 and HT-29)
Assay: Cytotoxic activities against CRC cell lines (statement over three lines)
Assay type: cell-based, human
Description: Based on the favorable pharmacologic and physicochemical properties of MOS-1512, it was selected as a new lead for the second subset of compounds (MOS-1812 to MOS-5112). The compounds in this series contained variable groups at R^1 and R^2 that were all tested against the three cancer cell lines (HCT-116, Caco-2 and HT-29).
Different cell lines were originally purchased from American type culture collection (ATCC, Wesel, Germany) and grown in the tissue culture lab of the Egyptian company for production of vaccines, sera and drugs (Vacsera, Giza, Egypt). The cells were transferred to our laboratory and maintained in the appropriate media as following. […]
The sulforhodamine B (SRB) assays were performed according to Skehan, P.; Storeng, R.; Scudiero, D.; Monks, A.; McMahon, J.; Vistica, D.; Warren, J. T.; Bokesch, H.; Kenney, S.; Boyd, M. R., New colorimetric cytotoxicity assay for anticancer-drug screening. […] Briefly, exponentially growing cells were trypsinized, counted and seeded at the appropriate densities (5000 cells/100 μL/well) into 96-well microtiter plates. […] The protein-bound dye was dissolved in 10 mM Tris base solution for (optical density) OD determination at 510 nm using a SpectraMax plus Microplate Reader (Molecular Devices, CA). […]

Which IC50 does the source give for CCCNC(=O)/C(=C/c1c[nH]c2ccccc12)NC(=O)/C=C/c1ccc(C)cc1 [Compound 4012, (Z)-3-(1H-indol-3-yl)-N-propyl-2-[(E)-3-(p-tolyl)acrylamidolacry]amide] here?
The IC50 was less than 5 µM.
